{
  "source": "the supplement of paper PMC8728848",
  "assay_in_all_cases": "glycan array binding signal (z-score within array); higher = stronger binding",
  "settings_in_all_cases": "glycan notation: IUPAC condensed, linker removed",
  "key": {"[1]": {"biological_target": "Gal(b1-3)[Neu5Ac(a2-6)]GalNAc", "procedure,_shortened": "(§1)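 Glycan array data came from 3228 arrays in the Consortium for Functional Glycomics database, and only arrays with an available protein sequence were kept. Glycan names were put into IUPAC-condensed notation, and columns mapping to the same glycan were averaged. The binding signal is a within-array Z-score, averaged across arrays of one protein sequence run at different concentrations or buffers and across linkers. A negative Z-score can be read as non-binding.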"}, "[2]": {"biological_target": "Gal(b1-3)[Neu5Ac(a2-6)]GlcNAc(b1-6)Gal(b1-4)Glc", "procedure,_shortened": "as §1"}, "[3]": {"biological_target": "Gal(b1-3)[Neu5Ac(b2-6)]GalNAc", "procedure,_shortened": "as §1"}, "[4]": {"biological_target": "Gal(b1-4)GalNAc(a1-3)[Fuc(a1-2)]Gal(b1-4)GlcNAc", "procedure,_shortened": "as §1"}, "[5]": {"biological_target": "Gal(b1-4)GalNAc(b1-3)[Fuc(a1-2)]Gal(b1-4)GlcNAc", "procedure,_shortened": "as §1"}, "Gal(b1-4)Glc": {"biological_target": "Gal(b1-4)Glc", "procedure,_shortened": "as §1"}, "Gal(b1-4)Glc6S": {"biological_target": "Gal(b1-4)Glc6S", "procedure,_shortened": "as §1"}, "Gal(b1-4)GlcNAc": {"biological_target": "Gal(b1-4)GlcNAc", "procedure,_shortened": "as §1"}, "[6]": {"biological_target": "Gal(b1-4)GlcNAc(a1-6)Gal(b1-4)GlcNAc", "procedure,_shortened": "as §1"}, "[7]": {"biological_target": "Gal(b1-4)GlcNAc(b1-2)Man(a1-3)Man(b1-4)GlcNAc(b1-4)GlcNAc", "procedure,_shortened": "as §1"}, "[8]": {"biological_target": "Gal(b1-4)GlcNAc(b1-2)Man(a1-3)[Gal(b1-4)GlcNAc(b1-2)Man(a1-6)]Man(b1-4)GlcNAc(b1-4)GlcNAc", "procedure,_shortened": "as §1"}, "[9]": {"biological_target": "Gal(b1-4)GlcNAc(b1-2)Man(a1-3)[Gal(b1-4)GlcNAc(b1-2)Man(a1-6)]Man(b1-4)GlcNAc(b1-4)[Fuc(a1-6)]GlcNAc", "procedure,_shortened": "as §1"}, "[10]": {"biological_target": "Gal(b1-4)GlcNAc(b1-2)Man(a1-3)[GlcNAc(b1-2)Man(a1-6)]Man(b1-4)GlcNAc(b1-4)GlcNAc", "procedure,_shortened": "as §1"}, "[11]": {"biological_target": "Gal(b1-4)GlcNAc(b1-2)Man(a1-3)[Man(a1-6)]Man(b1-4)GlcNAc(b1-4)GlcNAc", "procedure,_shortened": "as §1"}, "[12]": {"biological_target": "Gal(b1-4)GlcNAc(b1-2)Man(a1-6)Man(b1-4)GlcNAc(b1-4)GlcNAc", "procedure,_shortened": "as §1"}, "[13]": {"biological_target": "Gal(b1-4)GlcNAc(b1-2)Man(a1-6)[GlcNAc(b1-2)Man(a1-3)]Man(b1-4)GlcNAc(b1-4)GlcNAc", "procedure,_shortened": "as §1"}, "[14]": {"biological_target": "Gal(b1-4)GlcNAc(b1-2)Man(a1-6)[Man(a1-3)]Man(b1-4)GlcNAc(b1-4)GlcNAc", "procedure,_shortened": "as §1"}, "[15]": {"biological_target": "Gal(b1-4)GlcNAc(b1-2)[Gal(b1-4)GlcNAc(b1-4)]Man(a1-3)[Gal(b1-4)GlcNAc(b1-2)Man(a1-6)]Man(b1-4)GlcNAc(b1-4)GlcNAc", "procedure,_shortened": "as §1"}, "[16]": {"biological_target": "Gal(b1-4)GlcNAc(b1-2)[Gal(b1-4)GlcNAc(b1-4)]Man(a1-3)[Gal(b1-4)GlcNAc(b1-2)[Gal(b1-4)GlcNAc(b1-6)]Man(a1-6)]Man(b1-4)GlcNAc(b1-4)GlcNAc", "procedure,_shortened": "as §1"}, "[17]": {"biological_target": "Gal(b1-4)GlcNAc(b1-3)Gal(b1-3)GlcNAc", "procedure,_shortened": "as §1"}, "[18]": {"biological_target": "Gal(b1-4)GlcNAc(b1-3)Gal(b1-4)Glc", "procedure,_shortened": "as §1"}, "[19]": {"biological_target": "Gal(b1-4)GlcNAc(b1-3)Gal(b1-4)GlcNAc", "procedure,_shortened": "as §1"}, "[20]": {"biological_target": "Gal(b1-4)GlcNAc(b1-3)Gal(b1-4)GlcNAc(b1-3)Gal(b1-4)GlcNAc", "procedure,_shortened": "as §1"}, "[21]": {"biological_target": "Gal(b1-4)GlcNAc(b1-3)Gal(b1-4)[Fuc(a1-3)]GlcNAc(b1-3)Gal(b1-4)[Fuc(a1-3)]GlcNAc", "procedure,_shortened": "as §1"}, "[22]": {"biological_target": "Gal(b1-4)GlcNAc(b1-3)GalNAc", "procedure,_shortened": "as §1"}, "[23]": {"biological_target": "Gal(b1-4)GlcNAc(b1-3)[Gal(b1-4)GlcNAc(b1-6)]Gal(b1-4)GlcNAc", "procedure,_shortened": "as §1"}, "[24]": {"biological_target": "Gal(b1-4)GlcNAc(b1-3)[Gal(b1-4)GlcNAc(b1-6)]GalNAc", "procedure,_shortened": "as §1"}, "[25]": {"biological_target": "Gal(b1-4)GlcNAc(b1-3)[GlcNAc(b1-6)]Gal(b1-4)GlcNAc", "procedure,_shortened": "as §1"}, "[26]": {"biological_target": "Gal(b1-4)GlcNAc(b1-6)Gal(b1-4)GlcNAc", "procedure,_shortened": "as §1"}, "[27]": {"biological_target": "Gal(b1-4)GlcNAc(b1-6)GalNAc", "procedure,_shortened": "as §1"}, "[28]": {"biological_target": "Gal(b1-4)GlcNAc(b1-6)[Gal(b1-3)]GalNAc", "procedure,_shortened": "as §1"}, "Gal3S(b1-3)GalNAc": {"biological_target": "Gal3S(b1-3)GalNAc", "procedure,_shortened": "as §1"}, "Gal3S(b1-3)GlcNAc": {"biological_target": "Gal3S(b1-3)GlcNAc", "procedure,_shortened": "as §1"}, "[29]": {"biological_target": "Gal3S(b1-3)[Fuc(a1-4)]GlcNAc", "procedure,_shortened": "as §1"}, "Gal3S(b1-4)Glc": {"biological_target": "Gal3S(b1-4)Glc", "procedure,_shortened": "as §1"}, "Gal3S(b1-4)Glc6S": {"biological_target": "Gal3S(b1-4)Glc6S", "procedure,_shortened": "as §1"}, "Gal3S(b1-4)GlcNAc": {"biological_target": "Gal3S(b1-4)GlcNAc", "procedure,_shortened": "as §1"}, "Gal3S(b1-4)GlcNAc6S": {"biological_target": "Gal3S(b1-4)GlcNAc6S", "procedure,_shortened": "as §1"}},
  "note": "The list shows a part of the results.",
  "data": [
    {"binder": "SRS6 (Toxoplasma gondii), Q9NH12 (protein) MARTGSMQQRRGGFQTTARMLMAVCVSGVLLLSSGPSSANKLTEGQQNQNSGPGAATQEGPTIEGAVAKCVLKTTAAENGSSRAKNTTGLTLSKENLVVSLQCSGEKNAIVPKDQKKVCSAAPNAKVADCKGADTDKQVTLKSLLGTSGDIQWEKTIVSTDNKGEVMTLKIKESELPLFDKAFFVGCEEDKAQTRTSQATECKVNVSVKARPSTVGENNVVTCAYGKDSNPRPLEVEMSADNDTLTIDCGTDGSLKPTKYTEEFCVTDNSQLESCTTKKFSEILPTFLPSWWVSDSQNGSAKLTIPESGFPEEQQQFRLGCVPKKTTQSPQANPSVKTEKEEGAQNTDASTSNCSVIVTVKASNFSSLASSIAPTAAVAGGAAALTGFLVGSF", "values": [
      {"measurement": "glycan array binding signal (z-score)", "setting": "[1]", "value": -0.41},
      {"measurement": "glycan array binding signal (z-score)", "setting": "[2]", "value": -0.201},
      {"measurement": "glycan array binding signal (z-score)", "setting": "[3]", "value": 0.543},
      {"measurement": "glycan array binding signal (z-score)", "setting": "[4]", "value": -0.478},
      {"measurement": "glycan array binding signal (z-score)", "setting": "[5]", "value": 0.295},
      {"measurement": "glycan array binding signal (z-score)", "setting": "Gal(b1-4)Glc", "value": -0.789},
      {"measurement": "glycan array binding signal (z-score)", "setting": "Gal(b1-4)Glc6S", "value": 0.04},
      {"measurement": "glycan array binding signal (z-score)", "setting": "Gal(b1-4)GlcNAc", "value": -0.254},
      {"measurement": "glycan array binding signal (z-score)", "setting": "[6]", "value": 0.316},
      {"measurement": "glycan array binding signal (z-score)", "setting": "[7]", "value": 0.291},
      {"measurement": "glycan array binding signal (z-score)", "setting": "[8]", "value": -0.558},
      {"measurement": "glycan array binding signal (z-score)", "setting": "[9]", "value": 3.04},
      {"measurement": "glycan array binding signal (z-score)", "setting": "[10]", "value": -0.962},
      {"measurement": "glycan array binding signal (z-score)", "setting": "[11]", "value": 0.521},
      {"measurement": "glycan array binding signal (z-score)", "setting": "[12]", "value": -0.626},
      {"measurement": "glycan array binding signal (z-score)", "setting": "[13]", "value": 1.23},
      {"measurement": "glycan array binding signal (z-score)", "setting": "[14]", "value": -0.104},
      {"measurement": "glycan array binding signal (z-score)", "setting": "[15]", "value": -0.305},
      {"measurement": "glycan array binding signal (z-score)", "setting": "[16]", "value": -0.116},
      {"measurement": "glycan array binding signal (z-score)", "setting": "[17]", "value": -0.596},
      {"measurement": "glycan array binding signal (z-score)", "setting": "[18]", "value": 0.892},
      {"measurement": "glycan array binding signal (z-score)", "setting": "[19]", "value": -0.277},
      {"measurement": "glycan array binding signal (z-score)", "setting": "[20]", "value": 2.32},
      {"measurement": "glycan array binding signal (z-score)", "setting": "[21]", "value": -0.096},
      {"measurement": "glycan array binding signal (z-score)", "setting": "[22]", "value": -0.482},
      {"measurement": "glycan array binding signal (z-score)", "setting": "[23]", "value": -0.75},
      {"measurement": "glycan array binding signal (z-score)", "setting": "[24]", "value": 0.362},
      {"measurement": "glycan array binding signal (z-score)", "setting": "[25]", "value": 0.169},
      {"measurement": "glycan array binding signal (z-score)", "setting": "[26]", "value": 0.142},
      {"measurement": "glycan array binding signal (z-score)", "setting": "[27]", "value": -1.04},
      {"measurement": "glycan array binding signal (z-score)", "setting": "[28]", "value": 0.284},
      {"measurement": "glycan array binding signal (z-score)", "setting": "Gal3S(b1-3)GalNAc", "value": 0.152},
      {"measurement": "glycan array binding signal (z-score)", "setting": "Gal3S(b1-3)GlcNAc", "value": 0.114},
      {"measurement": "glycan array binding signal (z-score)", "setting": "[29]", "value": -1.25},
      {"measurement": "glycan array binding signal (z-score)", "setting": "Gal3S(b1-4)Glc", "value": -0.403},
      {"measurement": "glycan array binding signal (z-score)", "setting": "Gal3S(b1-4)Glc6S", "value": 0.718},
      {"measurement": "glycan array binding signal (z-score)", "setting": "Gal3S(b1-4)GlcNAc", "value": -0.174},
      {"measurement": "glycan array binding signal (z-score)", "setting": "Gal3S(b1-4)GlcNAc6S", "value": 0.899}
    ]}
  ]
}
